{"source": "PubChem BioAssay AID1347075", "about": "(National Center for Advancing Translational Sciences (NCATS), 2019)", "note": "The campaign covered roughly 400,000 compounds. About 5,500 (1.4%) were called active. The inconclusive results got no clear call from the source; some entries with a clear call stand among them for comparison. Calls come from the whole dose curve; as a rule, active = well fitted cell-killing curve with a large enough effect; inconclusive = small, poorly fitted or top-dose-only effect, or effect the other way; inactive = flat fitted curve, though single readings scatter. Potencies beside an inconclusive call are fits to weak or partial responses and may not hold up. % is set by controls: 0 for no effect and ±100 for the full control effect; potency is the fitted concentration of half-maximal effect."}
{"experiment": "qHTS assay for MDR1-selective chemotherapeutics: Primary screen using the parental adenocarcinoma cell KB-3-1; note: nearly all actives have a fitted effect of over 60% in size", "conditions": "KB-3-1 viability, CellTiter-Glo ATP luminescence, 72 h; activity change, negative = cytotoxic: at 46.1 µM (top of the series)", "in_short": "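72 h, 37 °C compound treatment of KB-3-1 parental cells; CellTiter-Glo added, 10 min, luminescence read. Data corrected against DMSO-only plates and normalized before curve fitting.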"}
{"molecule": "C[C@H](O)[C@@H]1CN2CCc3c([nH]c4ccc(-c5ccc6c(c5)OCO6)cc34)[C@@H]2C[C@@H]1N(C)C(=O)Nc1cc(Cl)cc(Cl)c1", "Potency": "active: 13 µM"}
{"molecule": "CC(=O)c1ccc(Nc2nc(C(N)Cc3ccc(N)cc3)cs2)cc1", "note": "(centres undefined)", "Potency": "inactive"}
{"molecule": "CN(CC(=O)Nc1ccc(F)c(F)c1F)C(=O)CN1C(=O)C2CCCCC2C1=O", "note": "(centres undefined)", "Potency": "inactive"}
{"molecule": "Cc1cc2nc(C3CCN(CC4COc5ccccc5O4)CC3)[nH]c2cc1C", "note": "(centres undefined)", "Potency": "inconclusive: 20.6 µM [cytotoxic, single point]"}
{"molecule": "Cc1ccc(-c2nc(CSCC(=O)N3CCN(c4ccccn4)CC3)c(C)o2)cc1", "Potency": "inconclusive: 6.51 µM [cytotoxic, partial curve]"}
{"molecule": "C=CC[n+]1c(-c2ccc(Cl)cc2Cl)csc1Nc1c(C)n(C)n(-c2ccccc2)c1=O", "Potency": "inconclusive: 29.1 µM [cytotoxic, single point]"}
{"molecule": "Cc1cc(Br)cc(Br)c1OCC(=O)NNC(=O)Nc1ccccc1", "Potency": "inactive"}
{"molecule": "CC(C)CCNC(=O)NC(=O)COC(=O)/C=C/c1cccc([N+](=O)[O-])c1", "Potency": "inconclusive: 14.6 µM [rising, partial curve, poor fit]"}
{"molecule": "Cn1cc(C(=O)c2ccc(Cl)cc2Cl)cc1C(=O)N/N=C(\\N)COc1ccc(F)cc1", "Potency": "inconclusive: 16.4 µM [cytotoxic, partial curve, poor fit]"}
{"molecule": "COC(=O)c1cc(CNC(=O)c2sccc2-c2ccccc2)ccc1OC", "Potency": "inactive"}
{"molecule": "Cc1cc(C)nc(-n2nc(C)cc2NC(=O)c2cc3ccccc3oc2=O)n1", "Potency": "inconclusive: 7.31 µM [rising, partial curve, poor fit]"}
{"molecule": "COc1ccccc1NS(=O)(=O)c1cccc(C(=O)NC2CCN(Cc3ccccc3)CC2)c1", "Potency": "inconclusive: 1.46 µM [cytotoxic, full curve, poor fit]"}
{"molecule": "COc1cccc(-c2nc(NC(C)(C)C)c3ccccc3n2)c1O", "Potency": "inconclusive: 20.6 µM [cytotoxic, single point]"}
{"molecule": "O=C(Nc1ccc(Br)cc1)c1ccc(Cl)c(S(=O)(=O)N2CCCCCC2)c1", "Potency": "inconclusive: 2.31 µM [cytotoxic, full curve]"}
{"molecule": "NC(COCc1ccccc1)c1csc(Nc2ccc(C(=O)c3ccccc3)cc2)n1", "note": "(centres undefined)", "Potency": "inactive"}
{"molecule": "COCCN(CCOC)C(=O)c1cc2sc3ccccc3c2s1", "Potency": "inactive"}
{"molecule": "Cc1cccc(NC(=S)N/N=C/c2ccc([N+](=O)[O-])s2)c1", "Potency": "inconclusive: 25.1 µM [cytotoxic, single point]"}
{"molecule": "COc1cc2c(C)nc3onc(-c4ccccc4)c3c2cc1OC", "Potency": "inconclusive: 8.2 µM [cytotoxic, partial curve, poor fit]"}
{"molecule": "COC(=O)c1ccc2nc(-c3ccco3)c(Cc3cccc(F)c3)n2c1", "Potency": "inactive"}
{"molecule": "CSc1nc2ccc(Nc3nc(N4CCOCC4)nc(N4CCOCC4)n3)cc2s1", "Potency": "inconclusive: 29.1 µM [cytotoxic, single point]"}
{"molecule": "Cc1ccn2c(Nc3c(C)cccc3C)c(-c3ccc(Cl)s3)nc2c1", "Potency": "inactive"}
{"molecule": "CCCCN(CCCC)C1=C(C(=O)c2ccccc2)N(CC)S(=O)(=O)c2ccccc21", "Potency": "inconclusive: 29.1 µM [cytotoxic, single point]"}
{"molecule": "CC(C)N(Cc1ccccc1)C(=O)COC(=O)c1cc[n+]([O-])cc1", "Potency": "inactive"}
{"molecule": "Fc1cccc(Cl)c1C1Nc2cccc3cccc(c23)N1", "Potency": "inactive"}
{"molecule": "COc1cc(C(=O)NCC2CCCO2)cc(Br)c1OCc1ccccc1", "note": "(centres undefined)", "Potency": "inconclusive: 16.4 µM [cytotoxic, partial curve, poor fit]"}
{"molecule": "Cc1ccc(OCc2nc(C#N)c(NCc3ccc4c(c3)OCO4)o2)cc1", "Potency": "inconclusive: 29.1 µM [cytotoxic, single point]"}
{"molecule": "CN(C)C1=NCCN1CC1CCCCCC1", "Potency": "inactive"}
{"molecule": "O=S(=O)(CCS(=O)(=O)c1ccccc1)c1ccccc1", "Potency": "inactive"}
{"molecule": "CCN(CC(=O)NCc1ccc(F)cc1)c1ccc(S(C)(=O)=O)cc1[N+](=O)[O-]", "activity change, negative = cytotoxic": "inconclusive: -1.26%"}
{"molecule": "C/C=C(\\C)CN1CCC(n2nccc2NC(=O)CCOc2ccccc2)CC1", "Potency": "inactive"}
{"molecule": "N#Cc1ccc(-c2ccc(OCC(O)Cn3nnc4ccccc43)cc2)cc1", "note": "(centres undefined)", "Potency": "inconclusive: 29.1 µM [cytotoxic, single point]"}
{"molecule": "CN(c1ccccc1)c1ccc(/C=C(\\CCC(=O)O)c2nc3ccccc3s2)cc1[N+](=O)[O-]", "Potency": "inconclusive: 25.9 µM [cytotoxic, single point]"}
{"molecule": "COC(=O)C1=C(C)NC2=C(C(=O)CCC2)C1c1cn(Cc2ccc(Cl)cc2Cl)nc1-c1ccccc1", "note": "(centres undefined)", "Potency": "inconclusive: 25.9 µM [cytotoxic, single point]"}
{"molecule": "O=C(NCc1ccco1)C1Cc2c(-c3ccccc3Oc3ccccc3)ccnc2O1", "note": "(centres undefined)", "Potency": "inconclusive: 29.1 µM [cytotoxic, single point]"}
{"molecule": "Cn1cccc1C(=O)NC(=O)COC(=O)CCNS(=O)(=O)c1ccc(Cl)cc1", "Potency": "inconclusive: 29.1 µM [rising, single point]"}
{"molecule": "CCN(CC)S(=O)(=O)c1ccc2c(c1)c(=O)c(C(=O)NCc1ccccc1OC)cn2C", "Potency": "inactive"}
{"molecule": "CC(C)CC(C)NNC(=O)c1cc2ccccc2[nH]1", "note": "(centres undefined)", "Potency": "inactive"}
{"molecule": "CC#CCN1c2ccccc2[C@]23C[C@@H](C(=O)OC)N(C(=O)c4ccc(Br)cc4)C2=NC(C(=O)OC)=C(C(=O)OC)[C@H]13", "Potency": "inconclusive: 29.1 µM [cytotoxic, single point]"}
{"molecule": "COc1ccc(/C=N/NC(=O)Cn2cnc3ccccc3c2=O)cc1", "Potency": "inactive"}
{"molecule": "COc1c(OC(C)=O)ccc(/C=C/c2ccc3cccc(OC)c3n2)c1[N+](=O)[O-]", "Potency": "inconclusive: 23.1 µM [cytotoxic, partial curve, poor fit]"}
{"molecule": "COC(=O)c1cnc(Nc2nc(C(N)c3ccccc3Cl)cs2)nc1C(F)(F)F", "note": "(centres undefined)", "Potency": "inactive"}
{"molecule": "CCC[n+]1c(C)sc2c3c(ccc21)CCCC3", "Potency": "inconclusive: 25.9 µM [cytotoxic, single point]"}
{"molecule": "Cc1ccc(S(=O)(=O)NCC(=O)OCc2ccccc2)cc1", "Potency": "inactive"}
{"molecule": "O=C(O)c1ccc(Cl)c(S(=O)(=O)N(Cc2ccccc2)c2ccccc2Cl)c1", "Potency": "inconclusive: 20.6 µM [cytotoxic, single point]"}
{"molecule": "Cc1nnn(-c2nonc2N)c1C(=O)N/N=C/c1ccccc1O", "Potency": "inconclusive: 9.2 µM [cytotoxic, partial curve, poor fit]"}
{"molecule": "CC1CCCN(S(=O)(=O)c2ccc(C(=O)Nc3nnc(-c4ccco4)o3)cc2)C1", "note": "(centres undefined)", "Potency": "inconclusive: 23.1 µM [cytotoxic, single point]"}
{"molecule": "CC(C)(C)S(=O)N1Cc2cc(C(=O)NCc3ccc(Oc4ccccc4)cc3)nc(-c3cccc(-c4cc5ccccc5o4)c3)c2[C@H]1CCO", "note": "(some centres undefined)", "Potency": "inconclusive: 29.1 µM [cytotoxic, single point]"}
{"molecule": "O=C(NCc1ccc2c(c1)CCN2C(=O)c1ccccc1)c1ccc(Br)o1", "Potency": "inactive"}
{"molecule": "Cc1cc(NS(=O)(=O)c2c(C)[nH]c(=O)[nH]c2=O)ccc1Br", "Potency": "inactive"}
{"molecule": "Cc1ccc(NS(=O)(=O)c2ccc3c(c2)NC(=O)CCS3)cc1F", "Potency": "inconclusive: 29.1 µM [cytotoxic, single point]"}
{"molecule": "NC(=O)C1CCN(c2ncc(-c3cccc(F)c3)s2)CC1", "Potency": "inconclusive: 14.6 µM [rising, partial curve, poor fit]"}
{"molecule": "Cc1ccc(C)c(N2CCN(C(=O)Cn3c(C)c4cnn(-c5ccccc5)c(=O)c4c3C)CC2)c1", "Potency": "inconclusive: 29.1 µM [cytotoxic, single point]"}
{"molecule": "CC1CN(C(=O)CCC(=O)NCCCN2CCC(Cc3ccccc3)CC2)c2cc(Cl)ccc2O1", "note": "(centres undefined)", "Potency": "inconclusive: 18.4 µM [cytotoxic, single point]"}
{"molecule": "O=C(NC(=O)c1c(Cl)cccc1Cl)Nc1ccc(Oc2cccnc2)nc1", "Potency": "inactive"}
{"molecule": "CCN(C(=O)Cn1cc(C(=O)c2ccc(F)cc2)c(=O)c2ccc(C)nc21)c1cccc(C)c1", "Potency": "inactive"}
{"molecule": "Cc1ccc(OCC(O)CNC2CCCC2)c(C)c1", "note": "(centres undefined)", "Potency": "inactive"}
{"molecule": "COc1cc(C(=O)NCC(=O)N2CCN(S(=O)(=O)c3cc(C)ccc3C)CC2)cc(OC)c1OC", "Potency": "active: 3.26 µM"}
{"molecule": "CCCCCCCCC(c1nc2cc(C)c(C)cc2[nH]1)n1c(=O)c(-c2ccccc2Br)nc2ccccc21", "note": "(centres undefined)", "Potency": "inactive"}
{"molecule": "Cn1cccc1-c1cc(C(=O)N/N=C/c2cc(Br)ccc2O)[nH]n1", "Potency": "inconclusive: 2.31 µM [cytotoxic, full curve]"}
{"molecule": "O=C(CCCOc1ccccc1)Nc1ccc(Cl)c(S(=O)(=O)N2CCOCC2)c1", "Potency": "inconclusive: 20.6 µM [cytotoxic, single point]"}
{"molecule": "CCOc1ccc(C(=O)N2CCC(c3ccncc3)CC2)cc1", "Potency": "inconclusive: 29.1 µM [cytotoxic, single point]"}
{"molecule": "COc1ccc(/C=C2/C(=O)OCc3cc(OC)c(OC)cc32)cc1", "Potency": "inconclusive: 3.66 µM [cytotoxic, partial curve, poor fit]"}
{"molecule": "CCCCCCn1c(CN2CCN(Cc3ccccc3)CC2)nc2c1c(=O)n(C)c(=O)n2C", "Potency": "inconclusive: 20.6 µM [cytotoxic, single point]"}
{"molecule": "CC1CCN(c2ccc(C(=O)O)cc2N)CC1", "Potency": "inconclusive: 25.9 µM [rising, single point]"}
{"molecule": "CN(C)c1ccc(C=C(C#N)C(=O)c2ccccc2)cc1Br", "Potency": "inactive"}
{"molecule": "COc1ccc(-c2oc3ncnc(NCCN4CCOCC4)c3c2-c2ccc(OC)cc2)cc1", "Potency": "inconclusive: 29.1 µM [cytotoxic, single point]"}
{"molecule": "O=C(O)CC(Cc1ccccc1)c1ccc2c(c1)OCO2", "note": "(centres undefined)", "Potency": "inconclusive: 23.1 µM [cytotoxic, partial curve, poor fit]"}
{"molecule": "Nc1cccc2c1C(=O)N(Cc1cccc(Cl)c1)C2=O", "Potency": "inactive"}
{"molecule": "COC(=O)c1cc(S(=O)(=O)N2CCN(c3cc(C)ccc3C)CC2)c[nH]1", "activity change, negative = cytotoxic": "inconclusive: -34.2% [cytotoxic]"}
